According to patent EP4803098A1, “GIPR BLOCKING TYPE ANTIBODY AND ANTIBODY CONJUGATE THEREOF” (Shandong Boan Biotechnology Co., Ltd., priority 2023, dated 2025):
Substitutions are numbered along the chain they refer to. Results are given in words; binding and its absence hold for the method and conditions named. Some results given as binding are weak or reduced against the parent protein; the word gives no strength. Sequences can lack the tags named with a protein. Each block holds one binder with its values, some of them ahead of it.

Biological target: T1, hGIPR-Fc protein (human) (UniProt P48546)
T1 sequence (looked up): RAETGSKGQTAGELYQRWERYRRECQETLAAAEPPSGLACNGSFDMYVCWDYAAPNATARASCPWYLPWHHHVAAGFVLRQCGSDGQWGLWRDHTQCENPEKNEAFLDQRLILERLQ
Test: ELISA, hGIPR-Fc coated

binding: binds
B1: BA191 (antibody, human IgG1, kappa, L234A L235A, V domains shown)
VH: EVQLVQSGAEVKKPGSSVKVSCKASGGTFSTFSSYAISWVRQAPGQGLEWMGRIIPILGIGNNAQKFQGRVTITADKSTSTAYMELSSLRSEDTAVYYCAREKDWGHFDYWGQGTLVTVSS
VL: DIQMTQSPSSLSASVGDRVTITCRASQGISNYLAWFQQKPGKAPKSLIYAASSLQSGVPSKFSGSGSGTDFTLTISSLQPEDFATYYCQQYNSYPITFGQGTRLEIKR

binding: binds
B2: CE947 (antibody, human IgG1, kappa, L234A L235A, V domains shown)
VH: EVQLVQSGAEVKKPGSSVKVSCKASGGTFNNYAISWVRQAPGQGLEWMGRIIPFLDIASNAQKFQGKVTITADKSTSTAYMELSSLRSEDTAVYYCAREVDWGWFDSWGQGTLVTVSS
VL: B1 VL with K61R, S77N, Q89L, N92Y, S93D, I96L, Q100G, R103K

binding: binds
B3: CE560 (antibody, human IgG1, kappa, L234A L235A, V domains shown)
VH: B2 VH with N60Y
VL: IQMTQSPSSLSASVGDRVTITCRASQGISSYLAWYQQKPGKAPKLLIYAASTLQSGVPSRFSGSGSGTDFTLTISSLQPEDFATYYCQQLNSYPLTFGGGTKVEIKR
